Data from PubChem BioAssay AID1347075 (National Center for Advancing Translational Sciences (NCATS), 2019).
Values joined by “and” are separate entries in the source; they are usually repeats but may differ in a detail not shown here. Identical values can stand only once. Screen size: about 400,000 compounds; about 5,500 (1.4%) were called active. The inconclusive results got no clear call from the source; some entries with a clear call stand among them for comparison. Calls follow the shape of the dose curve; as a rule, active = well fitted cell-killing curve with a large enough effect; inconclusive = small, poorly fitted or top-dose-only effect, or effect the other way; inactive = flat fitted curve, though single readings scatter. Potencies of inconclusive entries are doubtful fits and often do not repeat.
% is scaled to controls: 0 for no effect and ±100 for the full control effect; potency is read from the fitted curve at half-maximal effect.

Assay: qHTS assay for MDR1-selective chemotherapeutics: Primary screen using the parental adenocarcinoma cell KB-3-1; also: nearly all actives have a fitted effect of over 60% in size
Conditions: KB-3-1 viability, CellTiter-Glo ATP luminescence, 72 h; activity change, negative = cytotoxic: at 46.1 µM (top of the series)
In short: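 Here the drug-naive KB-3-1 line serves as comparator for MDR sub-line selectivity; cells received compound titrations, 72 h at 37 °C, then CellTiter-Glo readout.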
For CCC(C)NC(=O)Cc1ccc(NC(=O)N2CCCCc3ccccc32)cc1 (centres undefined), the Potency was “inactive”.
For Cn1c(SCC(=O)N2CCN(c3ccccc3)CC2)nnc1-c1ccco1, the Potency was “inactive”.
In the case of CC(=O)c1ccc(Nc2nc(C(N)C(C)C)cs2)cc1 (centres undefined), the Potency is reported as “inactive”.
In the case of O=C(NNC(=O)c1ccccn1)c1ccc(OC(F)F)cc1, the Potency is reported as inconclusive: 18.4 µM [cytotoxic, single point].
For CC(NC(=O)CCC(=O)NC(C)c1ccccc1)c1ccccc1 (centres undefined), the Potency was “inactive”.
For CC(C)C(=O)NC(c1cccc([N+](=O)[O-])c1)c1ccc2cccnc2c1O (centres undefined), the Potency was inconclusive: 2.59 µM [cytotoxic, full curve].
With O=C(Nc1ccc(Cl)cn1)c1cccc(F)c1 the Potency was active: 6.51 µM.
In the case of CCOC(=O)c1c(-c2ccc(OC)cc2)csc1NC(=O)COc1ccc2c(C)cc(=O)oc2c1, the Potency is reported as inconclusive: 20.6 µM [cytotoxic, partial curve, poor fit].
In the case of Cc1ccc(-c2nc(CS(=O)CC(=O)N3CCN(c4ccc(F)cc4)CC3)c(C)o2)cc1 (centres undefined), the Potency is reported as inconclusive: 16.4 µM [cytotoxic, single point].
For O=C(c1ccc(-c2ccccc2)c(F)c1)C1CCCN(C(=O)c2cncs2)C1 (centres undefined), the Potency was “inactive”.
For CCOCc1c(C(=O)NC2=Nc3ccccc3NC(CC)=C2C(=O)OCC)oc2ccccc12, the Potency was inconclusive: 16.4 µM [cytotoxic, partial curve].
In the case of CCOC(=O)c1c(C)[nH]c(C)c1C(=O)COC(=O)c1ccccc1O, the Potency is reported as inconclusive: 16.4 µM [rising, single point].
With COc1ccc(C(=O)/C=C/c2ccccc2OC)c(OC(=O)c2ccc([N+](=O)[O-])cc2)c1 the Potency was inconclusive: 29.1 µM [cytotoxic, single point].
With Cc1ccc(C)c(S(=O)(=O)N2CCN(C(=O)CCNS(=O)(=O)c3ccc(C)c(C)c3)CC2)c1 the Potency was inconclusive: 16.4 µM [cytotoxic, single point].
In the case of CN(Cc1ccc(F)cc1)C(=O)C(Cc1ccccc1)NC(=O)c1ccccc1 (centres undefined), the Potency is reported as “inactive”.
For COCCN(C(=O)CSc1nnc(-c2ccccc2C)n1C)c1c(N)n(Cc2ccccc2)c(=O)[nH]c1=O, the Potency was “inactive”.
In the case of OC(CNCCc1ccccc1)COc1ccc(OCC(O)CNCCc2ccccc2)cc1 (centres undefined), the Potency is reported as active: 20.6 µM.
For CC(O)C1CCC2C3CC[C@H]4CC(O)CCC4(C)C3CC3(OCCO3)C12C (some centres undefined), the Potency was “inactive”.
In the case of COc1ccc(C2c3c(ncn(CCCO)c3=N)Oc3ccc4ccccc4c32)cc1 (centres undefined), the Potency is reported as inconclusive: 14.6 µM [cytotoxic, single point].
In the case of CC(C)NC(=O)C1CCN(C(=O)c2cc3sccc3n2Cc2ccc(F)cc2)CC1, the Potency is reported as active: 18.4 µM.
For CCCCn1c(SCc2nc3ccccc3s2)nc2cc(S(N)(=O)=O)ccc21, the Potency was “inactive”.
For Cc1ccc(Sc2c(C)nn(C(=O)c3ccc(Br)cc3)c2C)cc1, the Potency was “inactive”.
With S=c1[nH]nc(-c2ccn[nH]2)n1-c1ccccc1Cl the Potency was “inactive”.
For N#CC1=C(SCC(=O)Nc2ccccc2)NC(=O)CC1c1ccco1 (centres undefined), the Potency was inconclusive: 5.8 µM [cytotoxic, full curve, poor fit].
In the case of COc1ccc([C@H]2CN(c3ccc(OC)cc3)C(=O)[C@@H]2CC(=O)Nc2ccc(Br)cc2)cc1, the Potency is reported as inconclusive: 20.6 µM [cytotoxic, partial curve].
With CCCCOc1ccc(C(=O)NCC(=O)NCC(c2ccc(OC)cc2)N2CCCC2)cc1 (centres undefined) the Potency was “inactive”.
In the case of Cc1ccccc1-c1nnc(SCC(=O)NC2CCCCC2)o1, the Potency is reported as “inactive”.
In the case of COc1ccccc1CNS(=O)(=O)c1ccc2c(c1)CC(C)N2C(=O)C1CCC1 (centres undefined), the Potency is reported as inconclusive: 16.4 µM [cytotoxic, partial curve, poor fit].
With COc1cc(C(c2sc3nc(C)nn3c2O)N2CCC3(CC2)OCCO3)cc(OC)c1OC (centres undefined) the Potency was inconclusive: 29.1 µM [cytotoxic, single point].
For CCOc1ccc(C(=O)OCC(=O)N(Cc2ccccc2)Cc2ccccc2)cc1OC, the Potency was “inactive”.
With CCCCCCCCCCCCCCCCn1cc[n+](C)c1 the Potency was active: 5.17 µM and active: 4.11 µM.
For O=C(Nc1ccc(Cl)cn1)c1ccccc1F, the Potency was active: 23.1 µM.
For Cc1ccc(NC(=O)C2CCCN2S(=O)(=O)c2ccc3c(c2)C(C)(C)C(=O)N3C)cc1 (centres undefined), the Potency was inconclusive: 20.6 µM [cytotoxic, single point].
For COCCN(Cc1cc2cc(C)cc(C)c2nc1Cl)C(=O)Nc1ccccc1, the Potency was inconclusive: 25.9 µM [cytotoxic, single point].
With CC(=Nc1ccccc1)C1=C(O)C(Cc2cccc(F)c2)NC1=O (centres undefined) the Potency was inconclusive: 0.0103 µM [cytotoxic, full curve, poor fit].
In the case of O=C(Cc1cccc(NC(=O)C2CCCN(C(=O)CCc3ccccc3)C2)c1)Nc1ccc(C(=O)N2CCCCC2)cc1 (centres undefined), the Potency is reported as inconclusive: 0.651 µM [cytotoxic, full curve, poor fit].
For CN(C)C(=O)c1cc(C(=O)c2ccccc2Cl)c[nH]1, the Potency was “inactive”.
In the case of CCCCn1c(N)c(N(CC(C)C)C(=O)c2cccc(S(=O)(=O)N3CCCCCC3)c2)c(=O)[nH]c1=O, the Potency is reported as inconclusive: 23.1 µM [cytotoxic, partial curve, poor fit].
With COC(=O)N(C)C[C@@H]1OCc2cn(nn2)CCCC(=O)N([C@@H](C)CO)C[C@H]1C the Potency was “inactive”.
In the case of COc1ccc(-c2cccc(-c3nc4ccc(Cl)cn4c3NC3CCCCC3)c2)cc1, the Potency is reported as inconclusive: 20.6 µM [cytotoxic, single point].
With Nc1nc(F)nc2c1ncn2[C@@H]1O[C@H](CO)[C@@H](O)[C@@H]1O the Potency was active: 0.651 µM.
With Brc1ccc2c(c1)-c1ccccc1C1=NCCN12 the Potency was inconclusive: 18.4 µM [cytotoxic, partial curve, poor fit].
In the case of COc1cc(NC(=O)COC(=O)Cc2ccc(-c3ccccc3)cc2)cc(OC)c1, the Potency is reported as “inactive”.
With Cc1ccc(CNC(=O)c2ccc3c(c2)CCN3S(=O)(=O)c2ccc(Br)cc2)cc1 the Potency was “inactive”.
For S=c1nc(-c2csc3c2CCCC3)[nH][nH]1, the Potency was “inactive”.
With Cc1ccc(NC(=O)c2nc[nH]c2C(=O)NCCCCNC(=O)c2[nH]cnc2C(=O)Nc2ccc(C)cc2)cc1 the Potency was inconclusive: 29.1 µM [cytotoxic, single point].
In the case of COC(=O)c1ccc(NC(=O)Cn2c(=O)oc3ccccc32)cc1, the Potency is reported as “inactive”.
For Oc1ccc(Cl)cc1-c1cc(-c2cccc(Br)c2)n[nH]1, the Potency was inconclusive: 29.1 µM [cytotoxic, single point].
With CCN(c1ccc(OC)cc1)S(=O)(=O)c1ccc2[nH]c3c(c2c1)CCCCC3 the Potency was active: 8.2 µM.
For Cc1cccc2c1-c1sc(C(=O)NCCCN3CCc4ccccc4C3)cc1CO2, the activity change, negative = cytotoxic was inconclusive: -40.4% [cytotoxic].
For Cc1c(C(=O)NNC(=O)c2csc(N3CCOCC3)n2)oc2ccc(Br)cc12, the Potency was “inactive”.
For O=C(NCc1ccccn1)Nc1cccc(F)c1, the Potency was “inactive”.
For COc1ccc(CC(=O)N2CC(=O)Nc3ccc(F)cc3C2c2ccccc2)cc1 (centres undefined), the Potency was “inactive”.
In the case of CCOC(=O)CNC(=O)N1CCN(S(=O)(=O)c2ccc3c(ccn3C)c2)CC1, the Potency is reported as “inactive”.
In the case of CN(Cc1cccs1)C(=O)c1ccc(Cl)c(S(=O)(=O)N2CCCCCC2)c1, the Potency is reported as “inactive”.
For CCc1ccc(NC(=O)CSc2n[nH]c(=O)n2C2CC2)cc1, the Potency was “inactive”.
For O=C(O)CC1C(=O)NCCN1CCCc1ccccc1 (centres undefined), the Potency was inconclusive: 2.59 µM [rising, partial curve].
In the case of CCOc1ccc(-c2nnn(CC(=O)NCc3ccco3)n2)cc1, the Potency is reported as inconclusive: 29.1 µM [cytotoxic, single point].
For CCSc1nnc(NC(=O)CSc2nc(CC)nc3c2c(=O)n(C)c(=O)n3C)s1, the Potency was inconclusive: 29.1 µM [cytotoxic, single point].
In the case of CC1(C)Cc2cccc(OCC(=O)NCc3cccs3)c2O1, the Potency is reported as “inactive”.
For CN1OC[C@@H]2CN(S(=O)(=O)c3cccc4ccccc34)[C@H](c3ccc(-c4ccccc4)cc3)C[C@@H]21, the Potency was inconclusive: 29.1 µM [cytotoxic, single point].
For CC(=O)c1sc(-c2ccc(Cl)cc2)nc1C, the Potency was “inactive”.
For CCOC(=O)c1c(-c2ccc(OC)cc2)csc1/N=C/C1=C(O)CCCC1=O, the Potency was inconclusive: 29.1 µM [rising, single point].
For CCOc1ccccc1NC(=O)c1nnn(CC(=O)Nc2ccc3c(c2)OCO3)c1N, the Potency was inconclusive: 23.1 µM [rising, single point].
For Cc1ccc(NC(=O)COc2cccc(C)c2C)cc1S(=O)(=O)N1CCCCCC1, the Potency was “inactive”.
In the case of COc1ccc(-c2ccc3c(c2)C2CC3CCN2Cc2ccc(OC(F)(F)F)cc2)cc1 (centres undefined), the Potency is reported as inconclusive: 25.9 µM [cytotoxic, single point].
For COc1ccc(Cc2nc3c([nH]2)c(=O)n(C)c(=O)n3C)cc1OC, the Potency was inconclusive: 32.6 µM [rising, single point].
For Cc1cc(C)cc(OCC(=O)Nc2ccc3c(c2)OCCO3)c1, the Potency was inconclusive: 3.66 µM [rising, partial curve, poor fit].
In the case of Cc1ccc(-n2c(C)cc(C(=O)CSc3nnnn3C)c2C)cc1, the Potency is reported as “inactive”.
In the case of CN1CCN(C(=O)c2ccc3c(c2)N(Cc2ccc(F)cc2)C(=O)c2ccccc2S3(=O)=O)CC1, the Potency is reported as “inactive”.
For Cc1c(C(=O)NC(=S)Nc2ccc(NC(=O)c3cccs3)cc2)cccc1[N+](=O)[O-], the Potency was inconclusive: 29.1 µM [cytotoxic, single point].
With CC(C)(C)N1CC(OC(N)=O)C1 the Potency was inconclusive: 0.92 µM [rising, full curve].
For Cn1c(CCc2ccccc2)n[nH]c1=S, the Potency was “inactive”.
In the case of COc1ccccc1N1CCN(CC(O)COc2ccc(Cl)c(C)c2)CC1 (centres undefined), the Potency is reported as “inactive”.
